Test results reported in the supplement of paper PMC10849652.
The other results are listed elsewhere or left out.

Chains of the proteins cited; added tags and fusions are not shown. Lines headed by an entry give the natural chain unless they say otherwise; changes in a name come on top.
UniProt Q14376: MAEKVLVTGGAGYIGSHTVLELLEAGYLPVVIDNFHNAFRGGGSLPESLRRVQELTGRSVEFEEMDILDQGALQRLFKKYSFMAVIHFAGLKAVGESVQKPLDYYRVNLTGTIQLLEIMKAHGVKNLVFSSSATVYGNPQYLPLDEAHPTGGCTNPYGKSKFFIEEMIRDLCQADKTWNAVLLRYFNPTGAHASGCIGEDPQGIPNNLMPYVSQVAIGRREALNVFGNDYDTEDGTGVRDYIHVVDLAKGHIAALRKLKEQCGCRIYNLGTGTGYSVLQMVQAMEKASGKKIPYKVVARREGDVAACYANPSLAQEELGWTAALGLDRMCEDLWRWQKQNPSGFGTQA
UniProt Q9H0R8, whole entry, looked up: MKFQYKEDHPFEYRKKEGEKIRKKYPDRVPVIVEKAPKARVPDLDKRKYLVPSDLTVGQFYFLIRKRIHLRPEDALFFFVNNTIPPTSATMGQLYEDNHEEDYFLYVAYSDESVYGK
UniProt P04066: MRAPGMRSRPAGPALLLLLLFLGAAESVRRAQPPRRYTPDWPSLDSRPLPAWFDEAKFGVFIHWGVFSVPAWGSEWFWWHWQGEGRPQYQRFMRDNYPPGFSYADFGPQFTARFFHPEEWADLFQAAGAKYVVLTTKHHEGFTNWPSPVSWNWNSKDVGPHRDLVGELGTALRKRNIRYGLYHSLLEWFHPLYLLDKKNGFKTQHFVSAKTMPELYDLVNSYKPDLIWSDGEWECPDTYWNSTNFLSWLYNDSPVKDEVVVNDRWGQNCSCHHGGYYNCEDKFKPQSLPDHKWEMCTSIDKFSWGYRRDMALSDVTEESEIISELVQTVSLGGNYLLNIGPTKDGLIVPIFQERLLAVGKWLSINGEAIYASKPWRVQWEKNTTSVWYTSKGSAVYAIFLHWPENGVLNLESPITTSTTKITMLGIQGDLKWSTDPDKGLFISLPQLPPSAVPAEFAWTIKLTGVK
UniProt O14772: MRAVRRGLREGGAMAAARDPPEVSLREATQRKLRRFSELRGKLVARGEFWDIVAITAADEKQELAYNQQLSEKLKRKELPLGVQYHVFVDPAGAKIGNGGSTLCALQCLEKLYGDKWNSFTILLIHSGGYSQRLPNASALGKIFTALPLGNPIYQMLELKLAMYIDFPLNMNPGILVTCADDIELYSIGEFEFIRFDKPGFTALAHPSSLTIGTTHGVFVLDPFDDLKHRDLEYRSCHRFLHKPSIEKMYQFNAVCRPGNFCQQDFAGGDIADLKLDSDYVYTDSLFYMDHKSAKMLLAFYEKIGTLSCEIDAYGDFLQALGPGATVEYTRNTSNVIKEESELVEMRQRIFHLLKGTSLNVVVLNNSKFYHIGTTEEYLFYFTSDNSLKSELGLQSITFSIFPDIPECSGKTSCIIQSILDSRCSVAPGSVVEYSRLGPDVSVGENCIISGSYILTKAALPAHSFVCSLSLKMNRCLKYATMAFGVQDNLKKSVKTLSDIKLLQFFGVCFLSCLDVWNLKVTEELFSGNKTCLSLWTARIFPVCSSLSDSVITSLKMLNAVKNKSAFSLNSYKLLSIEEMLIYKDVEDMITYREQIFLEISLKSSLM
UniProt Q6ZNW5: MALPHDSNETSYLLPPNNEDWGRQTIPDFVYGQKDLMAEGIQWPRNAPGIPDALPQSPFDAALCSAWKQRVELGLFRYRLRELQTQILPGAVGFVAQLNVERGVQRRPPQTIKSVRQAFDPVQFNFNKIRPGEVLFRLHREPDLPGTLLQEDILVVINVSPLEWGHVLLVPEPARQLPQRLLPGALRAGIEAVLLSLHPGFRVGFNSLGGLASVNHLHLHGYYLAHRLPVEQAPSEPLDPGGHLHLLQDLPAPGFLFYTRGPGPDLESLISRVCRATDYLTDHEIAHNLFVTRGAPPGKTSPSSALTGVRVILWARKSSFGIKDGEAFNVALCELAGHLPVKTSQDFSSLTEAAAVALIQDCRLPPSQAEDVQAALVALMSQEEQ
UniProt Q8WXI9: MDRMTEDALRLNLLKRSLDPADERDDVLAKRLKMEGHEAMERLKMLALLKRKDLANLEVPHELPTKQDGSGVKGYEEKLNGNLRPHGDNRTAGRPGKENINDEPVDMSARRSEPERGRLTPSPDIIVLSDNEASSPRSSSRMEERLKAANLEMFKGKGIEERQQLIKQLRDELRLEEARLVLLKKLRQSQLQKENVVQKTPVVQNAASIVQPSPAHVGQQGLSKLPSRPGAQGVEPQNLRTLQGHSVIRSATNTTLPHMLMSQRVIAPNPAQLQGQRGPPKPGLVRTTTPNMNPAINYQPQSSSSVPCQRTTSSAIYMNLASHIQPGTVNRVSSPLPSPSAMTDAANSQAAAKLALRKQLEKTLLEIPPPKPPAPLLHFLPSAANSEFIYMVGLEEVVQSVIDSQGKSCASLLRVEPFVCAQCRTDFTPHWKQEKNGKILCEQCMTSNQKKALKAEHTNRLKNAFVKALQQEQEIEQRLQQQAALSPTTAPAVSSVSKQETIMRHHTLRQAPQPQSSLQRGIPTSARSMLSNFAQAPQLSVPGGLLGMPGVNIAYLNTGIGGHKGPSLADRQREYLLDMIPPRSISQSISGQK
UniProt Q9UJY5: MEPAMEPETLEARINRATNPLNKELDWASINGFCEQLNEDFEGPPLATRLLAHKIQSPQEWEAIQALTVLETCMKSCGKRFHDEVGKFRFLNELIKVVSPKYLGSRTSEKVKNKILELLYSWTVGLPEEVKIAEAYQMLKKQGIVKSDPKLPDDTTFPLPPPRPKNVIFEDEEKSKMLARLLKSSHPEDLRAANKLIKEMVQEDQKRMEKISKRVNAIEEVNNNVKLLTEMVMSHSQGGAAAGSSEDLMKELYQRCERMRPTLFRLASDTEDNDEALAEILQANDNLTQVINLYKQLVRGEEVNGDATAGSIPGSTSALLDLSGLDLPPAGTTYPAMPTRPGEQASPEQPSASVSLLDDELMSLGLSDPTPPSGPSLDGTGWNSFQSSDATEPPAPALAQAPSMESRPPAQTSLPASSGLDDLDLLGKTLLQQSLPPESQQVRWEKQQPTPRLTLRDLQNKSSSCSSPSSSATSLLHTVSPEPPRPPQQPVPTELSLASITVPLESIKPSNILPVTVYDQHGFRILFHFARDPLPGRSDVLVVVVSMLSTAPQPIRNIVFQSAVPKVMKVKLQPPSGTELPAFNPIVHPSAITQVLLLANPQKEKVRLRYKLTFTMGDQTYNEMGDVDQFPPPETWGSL
UniProt Q01167: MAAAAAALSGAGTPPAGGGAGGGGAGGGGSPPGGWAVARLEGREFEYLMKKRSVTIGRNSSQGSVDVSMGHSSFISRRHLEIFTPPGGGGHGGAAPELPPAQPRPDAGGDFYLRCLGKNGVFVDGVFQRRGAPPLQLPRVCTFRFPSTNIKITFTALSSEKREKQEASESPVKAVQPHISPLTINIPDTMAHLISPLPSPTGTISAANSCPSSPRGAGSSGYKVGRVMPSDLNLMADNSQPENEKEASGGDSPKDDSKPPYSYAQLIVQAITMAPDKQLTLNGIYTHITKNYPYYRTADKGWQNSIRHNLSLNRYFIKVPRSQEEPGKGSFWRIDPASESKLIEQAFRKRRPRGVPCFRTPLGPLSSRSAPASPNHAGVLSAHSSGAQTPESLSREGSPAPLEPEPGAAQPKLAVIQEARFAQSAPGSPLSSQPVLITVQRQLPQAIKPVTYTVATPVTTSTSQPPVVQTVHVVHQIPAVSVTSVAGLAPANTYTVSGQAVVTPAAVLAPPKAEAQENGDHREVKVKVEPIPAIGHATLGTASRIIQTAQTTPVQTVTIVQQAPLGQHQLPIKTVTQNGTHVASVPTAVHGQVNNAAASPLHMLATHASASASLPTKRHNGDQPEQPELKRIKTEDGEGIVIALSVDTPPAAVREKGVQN
UniProt Q06547, whole entry, looked up: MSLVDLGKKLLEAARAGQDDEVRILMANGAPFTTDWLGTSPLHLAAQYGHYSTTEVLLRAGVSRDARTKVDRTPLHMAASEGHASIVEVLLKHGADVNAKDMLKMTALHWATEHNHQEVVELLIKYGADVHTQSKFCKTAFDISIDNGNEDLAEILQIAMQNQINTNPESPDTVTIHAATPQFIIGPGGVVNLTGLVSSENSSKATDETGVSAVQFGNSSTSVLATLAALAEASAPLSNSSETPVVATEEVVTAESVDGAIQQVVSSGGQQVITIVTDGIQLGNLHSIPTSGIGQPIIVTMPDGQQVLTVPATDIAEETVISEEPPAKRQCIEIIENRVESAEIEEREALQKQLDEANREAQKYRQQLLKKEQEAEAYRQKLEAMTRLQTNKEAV
UniProt Q92947: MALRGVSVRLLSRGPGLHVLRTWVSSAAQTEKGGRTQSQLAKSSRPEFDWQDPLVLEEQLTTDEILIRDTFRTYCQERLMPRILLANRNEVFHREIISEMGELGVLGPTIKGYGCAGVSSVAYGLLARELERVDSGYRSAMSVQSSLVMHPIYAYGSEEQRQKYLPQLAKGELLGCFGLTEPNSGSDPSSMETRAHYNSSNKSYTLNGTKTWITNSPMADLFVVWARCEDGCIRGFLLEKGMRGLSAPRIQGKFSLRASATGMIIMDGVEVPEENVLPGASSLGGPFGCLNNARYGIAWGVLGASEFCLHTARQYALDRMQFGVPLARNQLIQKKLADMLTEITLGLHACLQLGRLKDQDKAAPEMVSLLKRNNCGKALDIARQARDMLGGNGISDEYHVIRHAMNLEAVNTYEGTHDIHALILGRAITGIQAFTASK
UniProt Q99988: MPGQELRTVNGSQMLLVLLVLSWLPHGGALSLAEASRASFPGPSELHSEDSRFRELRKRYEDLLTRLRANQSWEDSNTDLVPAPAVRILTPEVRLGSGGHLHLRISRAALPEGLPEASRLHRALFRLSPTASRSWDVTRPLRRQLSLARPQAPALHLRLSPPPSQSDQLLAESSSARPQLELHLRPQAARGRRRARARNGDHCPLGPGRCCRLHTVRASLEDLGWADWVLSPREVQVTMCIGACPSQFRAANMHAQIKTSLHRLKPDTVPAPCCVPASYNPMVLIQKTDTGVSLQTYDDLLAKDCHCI
UniProt O75879: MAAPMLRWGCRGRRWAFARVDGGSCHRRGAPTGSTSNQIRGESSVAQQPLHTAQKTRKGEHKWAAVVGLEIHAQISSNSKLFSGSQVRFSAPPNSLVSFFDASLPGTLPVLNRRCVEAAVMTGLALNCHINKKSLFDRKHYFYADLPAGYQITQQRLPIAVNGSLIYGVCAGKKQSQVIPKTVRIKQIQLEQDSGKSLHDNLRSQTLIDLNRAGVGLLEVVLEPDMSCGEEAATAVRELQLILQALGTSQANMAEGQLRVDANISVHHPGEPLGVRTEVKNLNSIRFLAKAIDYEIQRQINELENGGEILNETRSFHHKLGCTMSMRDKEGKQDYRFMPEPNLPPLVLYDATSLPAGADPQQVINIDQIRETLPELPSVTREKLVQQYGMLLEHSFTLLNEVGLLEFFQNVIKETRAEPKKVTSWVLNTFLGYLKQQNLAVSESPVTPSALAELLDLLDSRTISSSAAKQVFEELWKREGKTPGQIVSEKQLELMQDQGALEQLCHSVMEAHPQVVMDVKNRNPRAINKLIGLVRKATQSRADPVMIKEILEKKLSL
UniProt P24522: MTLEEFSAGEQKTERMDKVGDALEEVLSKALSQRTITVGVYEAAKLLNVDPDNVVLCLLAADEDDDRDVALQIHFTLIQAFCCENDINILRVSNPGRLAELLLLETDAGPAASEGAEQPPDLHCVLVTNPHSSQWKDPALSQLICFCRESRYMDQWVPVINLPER
UniProt Q9UN86: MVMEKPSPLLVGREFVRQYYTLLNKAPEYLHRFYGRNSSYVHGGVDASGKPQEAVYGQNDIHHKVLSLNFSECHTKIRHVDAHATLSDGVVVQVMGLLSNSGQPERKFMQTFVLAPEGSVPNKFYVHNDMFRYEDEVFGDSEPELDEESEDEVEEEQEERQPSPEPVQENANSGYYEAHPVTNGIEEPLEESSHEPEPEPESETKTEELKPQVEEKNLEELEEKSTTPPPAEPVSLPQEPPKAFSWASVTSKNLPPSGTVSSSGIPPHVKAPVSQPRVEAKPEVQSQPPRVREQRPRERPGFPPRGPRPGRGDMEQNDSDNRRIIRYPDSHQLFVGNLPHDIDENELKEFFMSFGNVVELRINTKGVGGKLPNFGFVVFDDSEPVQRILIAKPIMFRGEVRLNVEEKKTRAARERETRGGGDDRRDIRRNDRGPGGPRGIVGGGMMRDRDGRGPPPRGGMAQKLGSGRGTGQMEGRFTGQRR
UniProt Q9H840: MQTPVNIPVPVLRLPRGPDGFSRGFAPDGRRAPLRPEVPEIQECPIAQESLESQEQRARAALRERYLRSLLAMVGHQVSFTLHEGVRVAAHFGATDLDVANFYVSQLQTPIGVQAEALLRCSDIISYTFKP

How the values were obtained:
Assay in all cases: log2 fold change, soluble protein after heating vs DMSO (PISA); higher = thermal stabilisation; K562 lysate, 10 uM; active = over 0.2 and 3.5 SD of the protein, either way, in both replicates (recomputed)
nilotinib = compound: Cc1cn(-c2cc(NC(=O)c3ccc(C)c(Nc4nccc(-c5cccnc5)n4)c3)cc(C(F)(F)F)c2)cn1 [nilotinib]
Procedure, shortened: (§1)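 Thermal stability, expressed as log-two fold change relative to solvent controls, is given from duplicates. Crude K562 extract in PBS pH 7.4 with 1 mM MgCl2, at 1 mg/mL protein, was treated with 10 μM compound for 30 min and heated in aliquots for 3 min across 48°C-58°C. After pooling, adjustment to 0.5% NP-40 at 4°C and centrifugation at 21,000xg for 90 min, supernatant protein was measured by TMTpro 16plex LC-MS/MS with channel sums equalised.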

[1] = compound: Cc1nc(Nc2n[nH]c3c2CN(C(=O)N[C@H](CN(C)C)c2ccccc2)C3(C)C)c2sccc2n1
Procedure, shortened: as §1

dasatinib = compound: Cc1nc(Nc2ncc(C(=O)Nc3c(C)cccc3Cl)s2)cc(N2CCN(CCO)CC2)n1 [dasatinib]
Procedure, shortened: as §1

[2] = compound: Cc1ncc(-c2ccnc(Nc3ccc(S(C)(=O)=O)cc3)n2)n1C(C)C
Procedure, shortened: as §1

[3] = compound: Cn1cc(-c2ccc3c(c2)CCN3C(=O)Cc2cccc(C(F)(F)F)c2)c2c(N)ncnc21
Procedure, shortened: as §1

quisinostat = compound: Cn1cc(CNCC2CCN(c3ncc(C(=O)NO)cn3)CC2)c2ccccc21 [quisinostat]
Procedure, shortened: as §1

tipifarnib = compound: Cn1cncc1[C@@](N)(c1ccc(Cl)cc1)c1ccc2c(c1)c(-c1cccc(Cl)c1)cc(=O)n2C [tipifarnib]
Procedure, shortened: as §1

[4] = compound: NC(=O)Nc1cc(-c2cccc(F)c2)sc1C(=O)N[C@H]1CCCNC1
Procedure, shortened: as §1

[5] = compound: NC(=O)c1cnc(N[C@@H]2CCCC[C@@H]2N)nc1Nc1cccc(-n2nccn2)c1
Procedure, shortened: as §1

[6] = compound: NC1(c2ccc(-c3nc4ccn5c(=O)[nH]nc5c4cc3-c3ccccc3)cc2)CCC1
Procedure, shortened: as §1

Measured: log2 fold change

GALE (UniProt Q14376)
inactive: nilotinib 0.011 | [1] 0.007 | dasatinib 0.037 | [2] -0.016 | [3] 0.036 | quisinostat 0.023 | tipifarnib -0.017 | [4] 0.032 | [5] 0.025 | [6] 0.028

GEMIN2 (UniProt O14893)
inactive: nilotinib -0.019 | [1] 0.014 | dasatinib -0.03 | [2] 0.032 | [3] -0.033 | quisinostat 0.142 | tipifarnib 0.059 | [4] 0.004 | [5] -0.039 | [6] 0.049

GABARAPL1 isoform 2 (UniProt Q9H0R8)
inactive: nilotinib -0.009 | [1] -0.051 | dasatinib -0.056 | [2] 0.013 | [3] 0.016 | quisinostat -0.024 | tipifarnib 0.05 | [4] -0.017 | [5] -0.004 | [6] 0.016

GBF1 (UniProt Q92538)
inactive: nilotinib -0.021 | [1] 0.02 | dasatinib -0.088 | [2] 0.027 | [3] 0.021 | quisinostat -0.04 | tipifarnib -0.003 | [4] 0.054 | [5] 0.018 | [6] -0.034

FUCA1 (UniProt P04066)
inactive: nilotinib -0.007 | [1] -0.014 | dasatinib 0.03 | [2] -0.049 | [3] 0.006 | quisinostat -0.074 | tipifarnib 0.026 | [4] -0.005 | [5] 0.048 | [6] -0.028

G6PD isoform 2 (UniProt P11413)
inactive: nilotinib 0.013 | [1] -0.008 | dasatinib 0.01 | [2] -0.012 | [3] -0.01 | quisinostat -0.021 | tipifarnib 0.016 | [4] 0.012 | [5] -0.035 | [6] 0.008

FPGT (UniProt O14772)
inactive: nilotinib -0.006 | [1] -0.004 | dasatinib -0.057 | [2] 0.029 | [3] -0.014 | quisinostat -0.105 | tipifarnib -0.036 | [4] 0.046 | [5] 0.035 | [6] -0.03

GFM2 (UniProt Q969S9)
inactive: nilotinib -0.077 | [1] 0.055 | dasatinib -0.087 | [2] 0.085 | [3] 0.036 | quisinostat 0.112 | tipifarnib 0.005 | [4] -0.033 | [5] 0.06 | [6] -0.116

GDPGP1 (UniProt Q6ZNW5)
inactive: nilotinib 0.018 | [1] 0.024 | dasatinib -0.041 | [2] 0.018 | [3] 0.05 | quisinostat 0.116 | tipifarnib -0.015 | [4] 0.008 | [5] 0.028 | [6] 0.002

GALNT11 (UniProt Q8NCW6)
inactive: nilotinib -0.019 | [1] 0.023 | dasatinib 0.012 | [2] 0.021 | [3] -0.021 | quisinostat -0.041 | tipifarnib 0.045 | [4] 0.04 | [5] -0.009 | [6] -0.028

2 records picked at random from the list so far, as already listed:
FPGT (UniProt O14772)
inactive: nilotinib -0.006 | [1] -0.004 | dasatinib -0.057 | [2] 0.029 | [3] -0.014 | quisinostat -0.105 | tipifarnib -0.036 | [4] 0.046 | [5] 0.035 | [6] -0.03

GFM2 (UniProt Q969S9)
inactive: nilotinib -0.077 | [1] 0.055 | dasatinib -0.087 | [2] 0.085 | [3] 0.036 | quisinostat 0.112 | tipifarnib 0.005 | [4] -0.033 | [5] 0.06 | [6] -0.116

Remaining list, next part.

GAR1 (UniProt Q9NY12)
inactive: nilotinib 0.018 | [1] -0.008 | dasatinib 0.015 | [2] 0.008 | [3] -0.009 | quisinostat -0.003 | tipifarnib 0.014 | [4] -0.01 | [5] 0.024 | [6] 0.004

GATAD2B (UniProt Q8WXI9)
inactive: nilotinib 0.05 | [1] 0.008 | dasatinib -0.01 | [2] 0.004 | [3] 0.011 | quisinostat -0.121 | tipifarnib -0.009 | [4] 0.031 | [5] 0.002 | [6] -0.022

FRG1 (UniProt Q14331)
inactive: nilotinib -0.166 | [1] 0.052 | dasatinib 0.056 | [2] -0.105 | [3] 0.017 | quisinostat 0.069 | tipifarnib -0.001 | [4] 0.018 | [5] 0.012 | [6] -0.005

GCC2 (UniProt Q8IWJ2)
inactive: nilotinib 0.02 | [1] 0.024 | dasatinib 0.019 | [2] 0.02 | [3] 0.014 | quisinostat -0.038 | tipifarnib -0.001 | [4] -0.02 | [5] -0.015 | [6] -0.003

GALNT6 (UniProt Q8NCL4)
inactive: nilotinib 0.049 | [1] -0.113 | dasatinib 0.089 | [2] 0.036 | [3] -0.152 | quisinostat 0.026 | tipifarnib -0.112 | [4] -0.122 | [5] -0.094 | [6] -0.075

GFER (UniProt P55789)
inactive: nilotinib 0.053 | [1] -0.026 | dasatinib 0.046 | [2] -0.124 | [3] 0.068 | quisinostat 0.002 | tipifarnib 0.032 | [4] 0.018 | [5] -0.004 | [6] -0.132

GGA1 isoform 6 (UniProt Q9UJY5)
inactive: nilotinib -0.001 | [1] -0.024 | dasatinib -0.018 | [2] 0.015 | [3] 0.013 | quisinostat -0.071 | tipifarnib 0.023 | [4] 0.005 | [5] 0.026 | [6] -0.023

FOXK2 (UniProt Q01167)
inactive: nilotinib 0.01 | [1] 0.017 | dasatinib -0.052 | [2] -0.006 | [3] 0.051 | quisinostat -0.034 | tipifarnib -0.027 | [4] 0.078 | [5] -0.029 | [6] 0.05

GABPB1 (UniProt Q06547)
inactive: nilotinib -0.008 | [1] 0.012 | dasatinib -0.051 | [2] -0.023 | [3] 0.05 | quisinostat -0.036 | tipifarnib 0.007 | [4] 0.031 | [5] 0.05 | [6] 0.033

FOXJ3 (UniProt Q9UPW0)
inactive: nilotinib 0.156 | [1] -0.053 | dasatinib -0.013 | [2] -0.008 | [3] -0.063 | quisinostat -0.055 | tipifarnib -0.017 | [4] 0.042 | [5] 0.017 | [6] -0.115

GCDH (UniProt Q92947)
inactive: nilotinib -0.018 | [1] -0.129 | dasatinib 0.024 | [2] -0.033 | [3] -0.022 | quisinostat -0.05 | tipifarnib -0.018 | [4] -0.07 | [5] -0.021 | [6] -0.044

GDF15 (UniProt Q99988)
inactive: nilotinib 0.146 | [1] 0.065 | dasatinib 0.119 | [2] -0.01 | [3] -0.095 | quisinostat 0.007 | tipifarnib 0.066 | [4] -0.043 | [6] 0.089

GDI2 (UniProt Q5SX86)
inactive: nilotinib -0.127 | [1] -0.005 | dasatinib -0.112 | [2] 0.207 | [3] 0.043 | tipifarnib 0.053 | [5] -0.112 | [6] 0.09

FZD1 (UniProt Q9UP38)
inactive: nilotinib -0.002 | [1] -0.027 | [2] 0.067 | quisinostat -0.064 | tipifarnib -0.123 | [4] -0.039

GATB (UniProt O75879)
inactive: nilotinib 0.003 | [1] 0.147 | dasatinib 0.041 | [2] -0.129 | [3] 0.197 | tipifarnib -0.276 | [5] 0.187

GADD45A (UniProt P24522)
inactive: nilotinib -0.112 | [1] 0.124 | [2] 0.092 | quisinostat -0.079 | tipifarnib 0.133 | [4] -0.008

GBA2 (UniProt Q9HCG7)
inactive: nilotinib -0.063 | [1] 0.114 | dasatinib 0.059 | [2] -0.079 | [3] 0.034 | quisinostat -0.101 | tipifarnib -0.213 | [4] 0.023 | [5] 0.058 | [6] -0.074

G3BP2 (UniProt Q9UN86)
inactive: nilotinib -0.033 | [1] -0.02 | dasatinib -0.007 | [2] -0.01 | [3] 0.009 | quisinostat 0.017 | tipifarnib 0.012 | [4] 0.002 | [5] 0.01 | [6] 0.063

GEMIN7 (UniProt Q9H840)
inactive: nilotinib -0.116 | [1] 0.055 | [2] 0.133 | quisinostat 0.123 | tipifarnib 0.059 | [4] -0.056

GFPT1 (UniProt Q06210)
inactive: nilotinib 0.003 | [1] -0.009 | dasatinib -0.013 | [2] 0.008 | [3] 0.002 | quisinostat -0.031 | tipifarnib -0.006 | [4] 0.027 | [5] -0.003 | [6] -0.025
